Reference: PubChem BioAssay AID743454 (Peter MacCallum Cancer Centre, 2014)
In all, the deposit lists about 18,000 reagents; this is a part drawn at random. Over the whole deposit, 450 (2.5%) got an active call. 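Single biological run; no consistent viability z cut-off exists, so the class columns, not z-scores, define the calls.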

- Aim: 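Knock-downs lowering viability or raising caspase 3/7 activity in vorinostat-treated resistant cells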 (primary screen)
- Cell system: human HCT116-VR colon cancer cells, selected for vorinostat resistance
- Reagent: siRNA pool against human genes, 40 nM siRNA pool
- Time to read-out: vorinostat for 24 h, read-out about 72 h after transfection
- Conditions: vorinostat at 2.5 µM final
- Detection: 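Cell viability by CellTiter-Fluor and caspase 3/7 activity by luminescence, each scaled to mock wells per plate, duplicates averaged, then robust z-scored over all plates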
- Reading the numbers: viability robust z-score: higher = more viable cells than screen typical; caspase robust z-score: higher = more caspase 3/7 activity than screen typical
- Rule for the call: 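Hits are knock-downs in viability class RV1/RV2 or caspase class CA1/CA2, excluding ones that killed cells in the no-drug cell-count arm; hits then retested with single siRNAs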

target | viability hit class | caspase hit class | viability robust z-score | caspase robust z-score | activity call
NDUFB9 (NADH:ubiquinone oxidoreductase subunit B9) | no change | no change | 0.88 | -0.15 | inactive
ZNF565 (zinc finger protein 565) | no change | no change | -0.44 | 2.43 | inactive
SPDYC (speedy/RINGO cell cycle regulator family member C) | no change | no change | 0.98 | 0.14 | inactive
MVB12A (multivesicular body subunit 12A) | no change | no change | -0.51 | -0.12 | inactive
GOLM1 (golgi membrane protein 1) | no change | no change | -0.01 | -0.28 | inactive
SERINC3 (serine incorporator 3) | no change | no change | -0.15 | -0.55 | inactive
TRIM54 (tripartite motif containing 54) | no change | no change | -2.27 | 3.58 | inactive
SYT2 (synaptotagmin 2) | no change | no change | 0.89 | 0.17 | inactive
PER2 (period circadian regulator 2) | no change | no change | 1.94 | -0.16 | inactive
MAU2 | no change | no change | -2.37 | 4.48 | inactive
APRG1 (APRG1 tumor suppressor candidate) | no change | no change | -1 | 0.08 | inactive
SKIC2 (SKI2 subunit of superkiller complex) | no change | CA2 (caspase activation) | -2.46 | 5.54 | active

Records above called active (1):
target | viability hit class | caspase hit class | viability robust z-score | caspase robust z-score | activity call
SKIC2 (SKI2 subunit of superkiller complex) | no change | CA2 (caspase activation) | -2.46 | 5.54 | active

The results go on.
target | viability hit class | caspase hit class | viability robust z-score | caspase robust z-score | activity call
SEC11B | no change | no change | -0.16 | 1.73 | inactive
CRTC2 (CREB regulated transcription coactivator 2) | no change | no change | -0.82 | 1.86 | inactive
TRAPPC9 (trafficking protein particle complex subunit 9) | no change | no change | 0.8 | -0.51 | inactive
RYR2 (ryanodine receptor 2) | no change | no change | -1.7 | 0.26 | inactive
NEK10 (NIMA related kinase 10) | no change | no change | -0.32 | -0.05 | inactive
SSH2 (slingshot protein phosphatase 2) | no change | no change | -0.07 | 0.2 | inactive
ALOX5 (arachidonate 5-lipoxygenase) | no change | no change | 0.18 | -0.55 | inactive
FBF1 (Fas binding factor 1) | no change | no change | 0.86 | -0.97 | inactive
KRTAP10-5 (keratin associated protein 10-5) | no change | no change | 0.6 | 1.18 | inactive
TCEA3 (transcription elongation factor A3) | no change | no change | 0.24 | -0.09 | inactive
ZIC2 (Zic family zinc finger 2) | no change | no change | 1 | -1.25 | inactive
